Where a name gives a salt, the structure may show the parent alone. ± gives the standard deviation of the averaged measurements. The list shows a part of the results. Values are raw readings; no control value is given beside them.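 HeLa cells imaged for ribosome-assembly readouts (ENP1 staining with or without export block, or inducible tagged ribosomal protein reporters); machine learning classified each cell's signal location against solvent (DMSO) controls. Hits exceeded the DMSO false-positive mean by five standard deviations, then were visually confirmed; three biological replicates.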
Key:
[1] = test system: HeLa K (ENP1 immunofluorescence, +LMB); experiment: fraction of cells with nucleolar or nucleolar/nucleoplasmic ENP1 signal (MainHitrate); higher = more cells with nucleolar/nuclear readout signal (for ENP1 -LMB: less RNAPI inhibition; for +LMB ENP1 and RP reporters: stronger nuclear/nucleolar retention, i.e. ribosome biogenesis defect); settings: concentration: 1 µM; treatment time: 6 h; ENP1 +LMB; leptomycin B: 20 nM, last 1.5 h
[2] = test system: HeLa K (ENP1 immunofluorescence, no LMB); experiment: as above; settings: concentration: 1 µM; treatment time: 6 h; ENP1 -LMB; leptomycin B: none
HeLa RPS2-YFP reporter = experiment: fraction of reporter-positive cells with nuclear (nucleolar or nucleolar/nucleoplasmic) RPS2-YFP (MainHitrate); higher = more cells with nucleolar/nuclear readout signal (for ENP1 -LMB: less RNAPI inhibition; for +LMB ENP1 and RP reporters: stronger nuclear/nucleolar retention, i.e. ribosome biogenesis defect); settings: concentration: 1 µM; treatment time: 6 h
HeLa RPL29-GFP reporter = experiment: fraction of reporter-positive cells with nuclear (nucleolar or nucleolar/nucleoplasmic) RPL29-GFP (MainHitrate); higher = more cells with nucleolar/nuclear readout signal (for ENP1 -LMB: less RNAPI inhibition; for +LMB ENP1 and RP reporters: stronger nuclear/nucleolar retention, i.e. ribosome biogenesis defect); settings: concentration: 1 µM; treatment time: 6 h

Compound | fraction [1] | fraction [2] | fraction of reporter-positive cells with nuclear (HeLa RPS2-YFP reporter) | fraction of reporter-positive cells with nuclear (HeLa RPL29-GFP reporter)
CC[C@]1(O)C[C@@H]2CN(CCc3c([nH]c4ccccc34)[C@@](C(=O)OC)(c3cc4c(cc3OC)N(C)[C@H]3[C@@](O)(C(=O)OC)[C@H](OC(C)=O)[C@]5(CC)C=CCN6CC[C@]43[C@@H]65)C2)C1 [Vinblastine] | 0.301 ± 0.15 | 0.9968 ± 0.0055 | 0.192 ± 0.14 | 0.341 ± 0.15
CC(C)(CO)[C@@H](O)C(=O)NCCC(=O)O [Pantothenic acid (pantothenate)] | 0.0918 ± 0.12 | 0.9963 ± 0.0064 | 0.121 ± 0.074 | 0.233 ± 0.06
CN1CCC(=C2c3ccccc3C=Cc3ccccc32)CC1 [Cyproheptadine HCl (Periactin)] | 0.133 ± 0.18 | 0.992 ± 0.014 | 0.114 ± 0.077 | 0.223 ± 0.059
N[C@@H](CSCCCO)C(=O)O [Fudosteine] | 0.0923 ± 0.13 | 0.994 ± 0.01 | 0.0951 ± 0.077 | 0.241 ± 0.057
NCCc1c[nH]cn1 [Histamine Phosphate] | 0.0591 ± 0.078 | 0.993 ± 0.012 | 0.115 ± 0.091 | 0.216 ± 0.065
CCCS(=O)(=O)Nc1ccc(F)c(C(=O)c2c[nH]c3ncc(-c4ccc(Cl)cc4)cc23)c1F [Vemurafenib (PLX4032)] | 0.104 ± 0.13 | 0.9978 ± 0.0038 | 0.125 ± 0.072 | 0.208 ± 0.091
CC#CCn1c(N2CCC[C@@H](N)C2)nc2c1c(=O)n(Cc1nc(C)c3ccccc3n1)c(=O)n2C [Linagliptin (BI-1356)] | 0.103 ± 0.11 | 0.983 ± 0.029 | 0.119 ± 0.099 | 0.215 ± 0.068
C[C@H]1c2cccc(O)c2C(=O)C2=C(O)[C@]3(O)C(=O)C(C(N)=O)=C(O)[C@@H](N(C)C)[C@@H]3[C@@H](O)[C@@H]21 [Doxycycline HCl] | 0.0871 ± 0.12 | 0.99 ± 0.017 | 0.139 ± 0.11 | 0.255 ± 0.11
COc1cc2nc(N3CCN(C(=O)c4ccco4)CC3)nc(N)c2cc1OC [Prazosin HCl] | 0.0997 ± 0.09 | 0.9954 ± 0.008 | 0.118 ± 0.074 | 0.214 ± 0.089
CN(C)/N=N/c1[nH]cnc1C(N)=O [Dacarbazine (DTIC-Dome)] | 0.092 ± 0.062 | 0.9983 ± 0.0029 | 0.093 ± 0.065 | 0.219 ± 0.063
CCC[C@@H]1C[C@@H](C(=O)N[C@@H]([C@H]2O[C@H](SC)[C@H](O)[C@@H](O)[C@H]2O)[C@H](C)Cl)N(C)C1 [Clindamycin] | 0.142 ± 0.22 | 0.988 ± 0.02 | 0.116 ± 0.11 | 0.244 ± 0.062
O=C1O[C@H]([C@@H](O)CO)C([O-])=C1O.[Na+] [Sodium ascorbate] | 0.0466 ± 0.056 | 0.986 ± 0.024 | 0.187 ± 0.14 | 0.464 ± 0.4
CCC(NC(C)C)C(O)c1ccc(O)c(O)c1 (stereo not given) [Isoetharine Mesylate] | 0.137 ± 0.17 | 0.9953 ± 0.0082 | 0.186 ± 0.19 | 0.285 ± 0.23
CCCC(C(=O)OCCN(CC)CC)(c1ccccc1)c1ccccc1 [Proadifen HCl] | 0.0997 ± 0.1 | 0.998 ± 0.0035 | 0.181 ± 0.17 | 0.326 ± 0.25
CC(=O)N[C@@H](CS)C(=O)O [Acetylcysteine] | 0.126 ± 0.14 | 0.9982 ± 0.0031 | 0.108 ± 0.089 | 0.21 ± 0.08
O=C(Nc1cccc2c(=O)cc(-c3nnn[nH]3)oc12)c1ccc(OCCCCc2ccccc2)cc1 [Pranlukast] | 0.123 ± 0.17 | 0.991 ± 0.016 | 0.13 ± 0.082 | 0.226 ± 0.11
CC[C@H]1OC(=O)[C@H](C)[C@@H](O[C@H]2C[C@@](C)(OC)[C@@H](O)[C@H](C)O2)[C@H](C)[C@@H](O[C@@H]2O[C@H](C)C[C@H](N(C)C)[C@H]2O)[C@](C)(O)C[C@@H](C)/C(=N\OCOCCOC)[C@H](C)[C@@H](O)[C@]1(C)O [Roxithromycin (Roxl-150)] | 0.0977 ± 0.14 | 0.9963 ± 0.0064 | 0.12 ± 0.079 | 0.181 ± 0.031
CC[C@@H]1C(=O)OC[C@@H]1Cc1cncn1C [Pilocarpine HCl] | 0.0527 ± 0.064 | 0.985 ± 0.025 | 0.148 ± 0.12 | 0.207 ± 0.068
CCOc1ccc2nc3cc(N)ccc3c(N)c2c1 [Ethacridine lactate monohydrate] | 0.0597 ± 0.08 | 0.992 ± 0.014 | 0.124 ± 0.12 | 0.208 ± 0.057
CCC(=O)O[C@]1(C(=O)SCF)[C@H](C)C[C@H]2[C@@H]3C[C@H](F)C4=CC(=O)C=C[C@]4(C)[C@@]3(F)[C@@H](O)C[C@@]21C [Fluticasone propionate (Flonase, Veramyst)] | 0.0674 ± 0.093 | 0.9956 ± 0.0076 | 0.149 ± 0.11 | 0.272 ± 0.088

2 entries from above, as tab-separated lines:
Compound	fraction [1]	fraction [2]	fraction of reporter-positive cells with nuclear (HeLa RPS2-YFP reporter)	fraction of reporter-positive cells with nuclear (HeLa RPL29-GFP reporter)
CC[C@@H]1C(=O)OC[C@@H]1Cc1cncn1C [Pilocarpine HCl]	0.0527 ± 0.064	0.985 ± 0.025	0.148 ± 0.12	0.207 ± 0.068
CCOc1ccc2nc3cc(N)ccc3c(N)c2c1 [Ethacridine lactate monohydrate]	0.0597 ± 0.08	0.992 ± 0.014	0.124 ± 0.12	0.208 ± 0.057

Source: the supplement of paper PMC12542422
